Measured values taken from patent US10292960B2, “Anticancer agent comprising aminoacetonitrile compound as active ingredient” (PITNEY PHARMACEUTICALS PTY LIMITED, priority 2013, dated 2019).
Some entries share one result that the patent states for a list of compounds.

Legend:
Type in all cases: cell-based
Conditions in all cases: 30 μM test substance, cultured 72 hr, Alamar Blue
[1] = tested on: human oophoroma cell line (OVCAR-3); assay: OVCAR-3 cell growth inhibitory activity test
[2] = tested on: human neuroepithelioma cell line (SK-N-MC); assay: SK-N-MC cell growth inhibitory activity test
[3] = tested on: human brain glioblastoma cell line (U-87); assay: U-87 cell growth inhibitory activity test

| Structure (SMILES) | cell growth inhibitory effect (inhibition ratio) against OVCAR-3 [1] | cell growth inhibitory effect (inhibition ratio) against SK-N-MC [2] | cell growth inhibitory effect (inhibition ratio) against U-87 [3] |
| --- | --- | --- | --- |
| CC(C#N)(COc1ccc(C#Cc2ccccc2)cc1)NC(=O)c1ccc(C(F)(F)F)cc1 (racemic) [1-25] | not less than 50% | not less than 50% | not less than 50% |
| CC(C#N)(COc1ccc(Cl)cc1)NC(=O)Cc1ccc(C(F)(F)C(F)(F)C(F)(F)F)cc1 (stereo not drawn) [2-113] | not less than 50% | not less than 50% | not less than 50% |
| CCCC(C#N)(COc1ccc(Cl)cc1)NC(=O)Cc1cccc(Cl)c1 (stereo not drawn) [2-76] | not less than 50% | not less than 50% | not less than 50% |
| CC(C#N)(COc1ccc(SC(F)(F)F)cc1)NC(=O)c1ccsc1 (stereo not drawn) [6-87] | not less than 50% | not less than 50% | not less than 50% |
| Cn1ncc(C(=O)NC(C)(C#N)COc2ccc(SC(F)(F)F)cc2)c1C(F)(F)F (stereo not drawn) [5-33] | not less than 50% |  | not less than 50% |
| CC(C#N)(COc1ccc(C(F)(F)C(F)(F)C(F)(F)F)cc1)NC(=O)Cc1ccc(C(F)(F)F)cc1 (stereo not drawn) [2-112] | not less than 50% | not less than 50% | not less than 50% |
| CC(C#N)(COc1ccc(C#Cc2ccccc2)cc1)NC(=O)c1ccc(SC(F)(F)F)cc1 (racemic) [1-93] | not less than 50% | not less than 50% | not less than 50% |
| CC(C#N)(COc1ccc(C#Cc2ccccc2)cc1)NC(=O)Cc1ccc(Cl)cc1 (stereo not drawn) [2-116] | not less than 50% | not less than 50% | not less than 50% |
| CN(CC(C)(C#N)NC(=O)c1ccc(SC(F)(F)F)cc1)c1ccc(Cl)cc1 (stereo not drawn) [5-158] | not less than 50% | not less than 50% | not less than 50% |
| CN(CC(C)(C#N)NC(=O)c1ccc(SC(F)(F)F)cc1)c1ccc(C(F)(F)F)cc1 (stereo not drawn) [5-160] | not less than 50% | not less than 50% | not less than 50% |
| CC(C#N)(COc1cc(-c2ccccc2)ccc1C(F)(F)F)NC(=O)Cc1ccc(SC(F)(F)F)cc1 (stereo not drawn) [2-137] | not less than 50% | not less than 50% | not less than 50% |
| CC(C#N)(COc1cccc(SC(F)(F)F)c1)NC(=O)Cc1ccc(SC(F)(F)F)cc1 (stereo not drawn) [2-143] | not less than 50% | not less than 50% | not less than 50% |
| CC(C)(C)C#Cc1ccc(OCC(C)(C#N)NC(=O)c2ccc(Cl)cc2)cc1 (racemic) [1-94] | not less than 50% | not less than 50% | not less than 50% |
| CC(C#N)(COc1ccc(C(F)(F)F)cc1)NC(=O)Cc1cc(C(F)(F)F)cc(C(F)(F)F)c1 (stereo not drawn) [2-54] | not less than 50% | not less than 50% | not less than 50% |
| CC(C#N)(COc1ccc(C#Cc2ccccc2)cc1)NC(=O)Cc1ccc(SC(F)(F)F)cc1 (stereo not drawn) [2-146] | not less than 50% | not less than 50% | not less than 50% |
| Cc1nn(C)c(Oc2ccccc2)c1C(=O)NC(C)(C#N)COc1ccc(SC(F)(F)F)cc1 (stereo not drawn) [5-45] |  | not less than 50% | not less than 50% |
| CC(C#N)(CSc1ccc(Cl)cc1)NC(=O)c1ccc(SC(F)(F)F)cc1 (stereo not drawn) [5-156] |  | not less than 50% | not less than 50% |
| Cc1nc(-c2ccc(Cl)cc2)sc1C(=O)NC(C)(C#N)COc1ccccc1Cl (stereo not drawn) [6-29] |  | not less than 50% | not less than 50% |
| CC(C#N)(COc1ccccc1Oc1ccccc1)NC(=O)c1ccc(C(F)(F)F)cc1 (racemic) [1-74] |  | not less than 50% | not less than 50% |
| CC(C#N)(COc1ccc(Cl)cn1)NC(=O)c1ccc(SC(F)(F)F)cc1 (stereo not drawn) [5-152] |  |  | not less than 50% |
| Cc1nc(-c2ccccc2)sc1C(=O)NC(C)(C#N)COc1ccc(SC(F)(F)F)cc1 (stereo not drawn) [6-24] | not less than 50% |  | not less than 50% |
| CC(C)c1cc(C(=O)NC(C)(C#N)COc2ccc(SC(F)(F)F)cc2)n(C)n1 (stereo not drawn) [5-63] |  | not less than 50% | not less than 50% |
| CC(C#N)(COc1ccccc1Cl)NC(=O)c1cnc(Nc2ccccc2)nc1 (stereo not drawn) [6-14] |  | not less than 50% | not less than 50% |
| CCOC(=O)c1c(C(F)(F)F)nn(C)c1C(=O)NC(C)(C#N)COc1ccc(SC(F)(F)F)cc1 (stereo not drawn) [5-81] |  |  | not less than 50% |
| CC(C#N)(COc1cccc(S(=O)(=O)C(F)(F)F)c1)NC(=O)Cc1ccc(SC(F)(F)F)cc1 (stereo not drawn) [2-145] |  |  | not less than 50% |
| CC(C#N)(COc1ccc(Cl)cc1)NC(=O)c1cccc(C(F)(F)F)c1 (racemic) [1-76] |  | not less than 50% | not less than 50% |
| Cc1onc(Cl)c1C(=O)NC(C)(C#N)COc1ccc(SC(F)(F)F)cc1 (stereo not drawn) [6-66] |  |  | not less than 50% |
| CC(C#N)(COc1ccc(C#Cc2ccncc2)cc1)NC(=O)c1ccc(SC(F)(F)F)cc1 (stereo not drawn) [5-147] |  | not less than 50% | not less than 50% |
| CC(C#N)(COc1ncc(Cl)cc1Cl)NC(=O)c1ccc(SC(F)(F)F)cc1 (stereo not drawn) [5-153] |  |  | not less than 50% |
| Cn1nc(-c2ccccc2)cc1C(=O)NC(C)(C#N)COc1ccc(SC(F)(F)F)cc1 (stereo not drawn) [5-69] |  | not less than 50% | not less than 50% |
